Measured values reported in US20230321241A1, “CANCER PEPTIDE VACCINE AND METHOD OF PREPARING THE SAME” (BrightPath Biotherapeutics Co., Ltd., priority 2020, published 2023).
Part of at least one peptide drawing is inferred or uncertain, most often the ends. Where a SMILES comes first, the peptide text is derived from it.

Tests used:
Assay type in all cases: physicochemical
[1] = Preparation Example 2: stability of lyophilized peptide cocktail preparation; conditions: T = 1 (1 month at 25° C., humidity 60%)
Experimental: To produce a lyophilized peptide cocktail preparation and confirm the stability of the preparation, 500 mL of a peptide cocktail preparation was prepared in the same manner as in Example 1, and then the preparation was aseptically filled to a glass vial at 1 mL per vial and lyophilized to provide a lyophilized peptide cocktail preparation. Then, immediately after the preparation (T=0) or after storage at room temperature (25° C., humidity 60%) for 1 month from the preparation (T=1), 1 mL of purified water was added to the lyophilized preparation to dissolve the peptides. Appearance, solubility, peptide stability, and pH were evaluated.

[2] = Test Example 2: solubility of SEQ ID NO: 1 in glycine-HCl buffers; conditions: for pH after dissolution: 25° C.
Experimental: The solubility of the peptide drug substance of SEQ ID NO: 1 (purity 95 w/w % or more, PPL) was examined as described below. First, 10 to 500 mM glycine-HCl buffers containing 270 mM trehalose from pH 2.5 to 3.5 were prepared, and the peptide drug substance was added to 2 mL of each buffer so that the peptide concentration was 10 to 25 mg/mL.

[3] = Example 1: peptide cocktail preparation standing at room temperature for 6 hours; conditions: for HPLC analysis: peptide concentration: in peptide cocktail preparation of Example 1 (with GM-CSF)
Experimental: Using the lyophilized peptide preparations produced in Preparation Example 1, a peptide cocktail preparation to be administered was prepared as follows. First, 1 mL of purified water was added to each lyophilized peptide preparation, and the lyophilized product in the vial was dissolved to prepare a peptide solution. All the peptide solutions were collected from the respective vials and transferred to a different vial to provide a peptide cocktail preparation. Also, a GM-CSF lyophilized preparation (product name: Lukine ([…]), Sanofi) was dissolved in 1 mL of purified water and 0.6 mL of the solution thus obtained was added as an adjuvant to 1.4 mL of the peptide cocktail preparation to provide a peptide cocktail preparation to be administered. Then, the peptide cocktail preparation thus obtained was allowed to stand at room temperature for 6 hours, and evaluated for changes in peptide concentration, pH (25° C.), and osmotic pressure compared with those before standing.

[4] = Test Example 3: peptide stability in solution (HPLC); conditions: for % difference vs T = 0 / Conc.: buffers as Table 3
Experimental: Based on the results of Test Example 1 and Test Example 2, the stability of the peptides was examined. First, peptide drug substances (purity 95 w/w % or more, PPL) were dissolved in the buffers shown in Table 3, respectively, to prepare peptide solutions of the peptides of SEQ ID NOs: 1 to 4 at the final concentration of 10 mg/mL. […] In the evaluation, samples were collected at the time of preparation of the peptide solution, after 24 hours, and after 48 hours, and stored at −20° C. The peptide concentration was measured by HPLC after all the samples were collected, and compared with the peptide concentration at the time of preparation (T=0).

[5] = Test Example 1: examination of peptide solubility in citrate/phosphate buffers; conditions: final conc. 20 mg/mL, room temperature 24 hours
Experimental: The solubility of a peptide drug substance (purity 95 w/w % or more, PPL) was examined for the peptides Asn-Val-Leu-His-Phe-Phe-Asn-Ala-Pro-Leu (SEQ ID NO: 1), Ala-Ser-Leu-Asp-Ser-Asp-Pro-Trp-Val (SEQ ID NO: 2), Lys-Leu-Lys-His-Tyr-Gly-Pro-Gly-Trp-Val (SEQ ID NO: 3), and Leu-Leu-Gln-Ala-Glu-Ala-Pro-Arg-Leu (SEQ ID NO: 4), respectively. First, 10 mM citrate buffers (Citrate) or phosphate buffers (Phosphate) containing 270 mM trehalose from pH 3.0 to pH 8.0 were prepared and the peptide drug substance was added to each buffer so as to provide a predetermined peptide concentration. The mixture was stirred and allowed to stand at room temperature for 24 hours to evaluate whether the peptide drug substance was dissolved.

SMILES: CC(C)C[C@H](NC(=O)[C@@H]1CCCN1C(=O)[C@H](C)NC(=O)[C@H](CC(N)=O)NC(=O)[C@H](Cc1ccccc1)NC(=O)[C@H](Cc1ccccc1)NC(=O)[C@H](Cc1c[nH]cn1)NC(=O)[C@H](CC(C)C)NC(=O)[C@@H](NC(=O)[C@@H](N)CC(N)=O)C(C)C)C(=O)O [SEQ ID NO: 1, Asn-Val-Leu-His-Phe-Phe-Asn-Ala-Pro-Leu] (H-NVLHFFNAPL-OH; N-terminus and C-terminus assumed)
- change in peptide amount % vs T = 0 (100%) (HPLC analysis) [1]: SEQ ID NO: 1: 99.5%
- preferable peptide concentration (for dissolution) ([2]; glycine-HCl buffer): ≤ 20 mg/mL
- pH after dissolution ([2]; glycine-HCl buffer pH 2.5, glycine 10 mM, peptide 20 mg/mL): 3.86
- pH after dissolution ([2]; glycine-HCl buffer pH 3, glycine 10 mM, peptide 20 mg/mL): 4.10
- pH after dissolution ([2]; glycine-HCl buffer pH 3.5, glycine 10 mM, peptide 20 mg/mL): 4.22
- pH after dissolution ([2]; glycine-HCl buffer pH 3.5, glycine 50 mM, peptide 10 mg/mL): 3.8
- pH after dissolution ([2]; glycine-HCl buffer pH 3.5, glycine 50 mM, peptide 25 mg/mL): 4.08
- pH after dissolution ([2]; glycine-HCl buffer pH 3.5, glycine 100 mM, peptide 10 mg/mL): 3.7
- pH after dissolution ([2]; glycine-HCl buffer pH 3.5, glycine 100 mM, peptide 25 mg/mL): 3.92
- pH after dissolution ([2]; glycine-HCl buffer pH 3.5, glycine 200 mM, peptide 10 mg/mL): 3.65
- pH after dissolution ([2]; glycine-HCl buffer pH 3.5, glycine 300 mM, peptide 10 mg/mL): 3.57
- pH after dissolution ([2]; glycine-HCl buffer pH 3.5, glycine 500 mM, peptide 25 mg/mL): 3.61
- HPLC analysis: peptide concentration ([3]; T = 0 hour): SEQ ID NO: 1: 2.6 mg/mL
- HPLC analysis: peptide concentration ([3]; T = 6 hours, room temperature): 3.0 mg/mL
- HPLC analysis: % vs T0 ([3]; in peptide cocktail preparation of Example 1, T = 6 hours, room temperature): 113.1%
- % difference vs T = 0 ([4]; T = 24 h, 25° C./60% RH): 2%
- Conc. ([4]; T = 24 h, 25° C./60% RH): 11440 µg/mL
- % difference vs T = 0 ([4]; T = 24 h, 40° C./75% RH): −2%
- Conc. ([4]; T = 24 h, 40° C./75% RH): 11040 µg/mL
- % difference vs T = 0 ([4]; T = 48 h, 25° C./60% RH): −1%
- Conc. ([4]; T = 48 h, 25° C./60% RH): 11180 µg/mL
- % difference vs T = 0 ([4]; T = 48 h, 40° C./75% RH): 0%
- Conc. ([4]; T = 48 h, 40° C./75% RH): 11230 µg/mL
- T0 Conc. ([4]; time of preparation, buffers: SEQ1 pH 3.5 50 mM Gly-HCl + 200 mM trehalose, SEQ2 pH 4.0, SEQ3 pH 7.0, SEQ4 pH 6.0 in 10 mM citrate + 270 mM trehalose): 11.26 mg/mL
- result (whether peptide drug substance was dissolved) ([5]; 10 mM Citrate pH 3.0, 270 mM trehalose): white
- result (whether peptide drug substance was dissolved) ([5]; 10 mM Citrate pH 3.5, 270 mM trehalose): white
- result (whether peptide drug substance was dissolved) ([5]; 10 mM Citrate pH 4.0, 270 mM trehalose): white
- result (whether peptide drug substance was dissolved) ([5]; 10 mM Citrate pH 5.0, 270 mM trehalose): white
- result (whether peptide drug substance was dissolved) ([5]; 10 mM Citrate pH 6.0, 270 mM trehalose): white
- result (whether peptide drug substance was dissolved) ([5]; 10 mM Phosphate pH 7.0, 270 mM trehalose): white
- result (whether peptide drug substance was dissolved) ([5]; 10 mM Phosphate pH 7.5, 270 mM trehalose): white
- result (whether peptide drug substance was dissolved) ([5]; 10 mM Phosphate pH 8.0, 270 mM trehalose): white
